Assay results taken from PubChem BioAssay AID540275 (National Center for Advancing Translational Sciences (NCATS), 2011).
Out of some 320,000 compounds screened, about 620 (0.19%) were called active. Inconclusive means that the source gave no clear call. Such entries were picked first, then a sample of the others. No stated cut-off is given here; in the data, active means activation above about 80%; inconclusive means between about 30% and that limit; inactive means weaker than that.

By UniProt entry, the sequences of proteins in these tests, tags left out.
UniProt Q8NER1, whole entry, looked up: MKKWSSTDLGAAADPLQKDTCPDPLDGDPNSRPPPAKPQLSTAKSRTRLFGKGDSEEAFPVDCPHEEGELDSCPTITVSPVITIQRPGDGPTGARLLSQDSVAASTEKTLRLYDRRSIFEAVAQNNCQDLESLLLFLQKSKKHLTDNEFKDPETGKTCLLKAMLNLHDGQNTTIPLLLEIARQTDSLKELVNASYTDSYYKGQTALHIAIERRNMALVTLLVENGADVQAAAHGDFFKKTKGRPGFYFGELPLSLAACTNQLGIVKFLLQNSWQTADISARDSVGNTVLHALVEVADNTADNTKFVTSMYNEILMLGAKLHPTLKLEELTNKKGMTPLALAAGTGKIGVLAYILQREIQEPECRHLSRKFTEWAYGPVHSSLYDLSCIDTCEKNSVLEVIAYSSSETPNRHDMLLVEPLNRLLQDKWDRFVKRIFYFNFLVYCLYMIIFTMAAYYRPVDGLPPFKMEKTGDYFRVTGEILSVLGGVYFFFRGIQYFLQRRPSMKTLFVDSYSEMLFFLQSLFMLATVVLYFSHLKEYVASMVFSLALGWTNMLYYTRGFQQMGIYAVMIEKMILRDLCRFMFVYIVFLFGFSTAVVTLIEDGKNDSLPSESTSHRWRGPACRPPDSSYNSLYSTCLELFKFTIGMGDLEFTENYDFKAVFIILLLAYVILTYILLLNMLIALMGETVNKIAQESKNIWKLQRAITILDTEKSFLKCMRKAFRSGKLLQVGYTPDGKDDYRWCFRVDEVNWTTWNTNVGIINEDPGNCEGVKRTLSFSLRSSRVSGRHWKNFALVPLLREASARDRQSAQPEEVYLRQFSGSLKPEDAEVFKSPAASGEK

Biological target: Transient receptor potential cation channel subfamily V member 1 (Homo sapiens) (UniProt Q8NER1)
Assay: HTS Assay for Compounds that Act as Agonists of the Vanilloid Receptor 1; further: 0% is about no effect
Conditions: TRPV1-expressing cells, Fluo-8 calcium influx, agonist mode; at 8.33 µM, hits give high values
Procedure, shortened: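 Cells expressing TRPV1 were dye-loaded with Fluo-8 and read kinetically: 10 s baseline, 3 min after compound (agonist portion), then 2 min after EC20 capsaicin (allosteric enhancer portion). Calcium-bound dye fluorescence at 480/520 nm.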

SMILES | activation
O=C(Nc1ccc(Cl)cc1C(=O)NCC1CCCO1)c1ccc(Cl)cc1Cl (centres undefined) | inconclusive: 38.4%
C=CCn1cc(C(=O)NCCCOCC)c(=O)c2cc(S(=O)(=O)N(CC)CC)ccc21 | inactive: 28%
CN(C)c1ccc(/C=C(/C#N)C(=O)NCc2ccccc2)o1 | inconclusive: 31.3%
COC(=O)c1ccc2c(=O)sc(N3CCC(C(N)=O)CC3)nc2c1 | inconclusive: 45.5%
COC(=O)c1ccc(C(NC(=O)OCc2ccccc2)/C(C)=C/[C@@H](C)C(=O)NCc2ccc(OC)c(OC)c2)cc1 (some centres undefined) | inconclusive: 34.2%
CCc1c(C(=O)Nc2ccc(C)c(C)c2)[nH]c(C)c1C(C)=O | inconclusive: 33.8%
CCOC(=O)C1(Cc2ccccc2C)CCCN(C(=O)c2ccoc2)C1 (centres undefined) | inconclusive: 40.6%
CN(Cc1cccnc1)C(=O)c1cc(COc2ccc3c(c2)CCCC3)on1 | inconclusive: 53.4%
O=C(Nc1nccs1)C1CCN(S(=O)(=O)c2c(Cl)cccc2Cl)CC1 | inconclusive: 56.6%
CCCCn1c(O)c(N=NC(=O)c2ccco2)c2ccccc21 | inconclusive: 44.8%
COc1ccc(OC)c(/C=C/C(=O)N2CCN(S(=O)(=O)c3cc(C)ccc3C)CC2)c1 | inactive: -2.89%
CC(C)c1ccc(NC(=O)c2cccc(Br)c2)cc1 | active: 93.4%
O=C1C2C(c3ccccc3)C=CC(c3ccccc3)C2C(=O)N1c1ccncc1 (centres undefined) | inconclusive: 57.2%
Cc1cc(C(C)(C)C)nc2[nH]n(-c3ccccc3)c(=O)c12 | inconclusive: 32.1%
O=C(CCC(=O)c1ccc(Br)cc1)Nc1ccc(F)cc1 | inconclusive: 31.7%
CCOC(=O)c1sc2ncnc(NCc3ccco3)c2c1C | inactive: 4.33%
CN1CCN(C(=O)c2cccc(COc3cc(Cl)ccc3Cl)c2)CC1 | inactive: 8.25%
Cc1ccc(S(=O)(=O)Cn2nnnc2C(c2ccc(F)cc2)N2CCCCC2)cc1 (centres undefined) | inconclusive: 35.3%
COCC(C)NC(=S)N1CCN(c2ccccc2Cl)CC1 (centres undefined) | inconclusive: 30.1%
COc1ccc(NC(=O)C2CCCCN2N)cc1OCC(C)C (centres undefined) | inconclusive: 56.2%
CCOC(=O)C1(CCCc2ccccc2)CCN(C(=O)CCc2cnccn2)CC1 | inconclusive: 46.8%
CCN(CC)CCCN(C(=O)c1ccc(OC)cc1)c1nc(-c2ccc(OC)cc2)cs1 | inactive: 10.2%
CCOC(=O)N1CCN(C(=O)c2ccc3c(=O)n(Cc4ccc(OC)cc4)c(=S)[nH]c3c2)CC1 | inactive: -0.337%
CCC(C(=O)Nc1cc(Cl)c(OC)cc1OC)c1ccccc1 (centres undefined) | inconclusive: 39.2%

A second format for part of the listing above:
SMILES	activation
Cc1cc(C(C)(C)C)nc2[nH]n(-c3ccccc3)c(=O)c12	inconclusive: 32.1%
O=C(CCC(=O)c1ccc(Br)cc1)Nc1ccc(F)cc1	inconclusive: 31.7%
